In patent publication US20080176957A1, “PRESERVATIVE COMPOSITIONS COMPRISING RENEWABLY-BASED, BIODEGRADABLE 1,3-PROPANEDIOL” (priority 2006, published 2008):
Some of these results come from one statement about several compounds together.

System: Aspergillius niger, Candida albicans, Blue/green Penicillium, and Trichoderma
Assay: CTFA challenge test on neat glycols with fungal spores (Example 4)
Format: cell-based
Details: neat glycol; six hours after inoculation with approximately 6×10^5 fungal spores

Q: Which Number of colonies does the source give for CC(O)CO (stereo not shown) [PG, propylene glycol, reference compound] here?
A: < 10
